Laboratory results taken from patent US20130115166A1.
These are yes or no findings as the source states them, for the method shown. Some results given as binding are weak or reduced against the parent protein; the word gives no strength.

Chains of the proteins cited; added tags and fusions are not shown. Lines headed by an entry give the natural chain unless they say otherwise; changes in a name come on top.
UniProt Q9NPF7: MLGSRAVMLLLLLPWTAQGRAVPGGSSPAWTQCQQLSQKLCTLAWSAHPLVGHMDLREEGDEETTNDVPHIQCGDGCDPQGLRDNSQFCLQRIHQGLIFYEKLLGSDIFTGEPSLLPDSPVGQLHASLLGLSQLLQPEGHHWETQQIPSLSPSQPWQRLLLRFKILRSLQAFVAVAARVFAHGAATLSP

Tests used:
[1] = target: IL-23Fc (human) (UniProt Q9NPF7); assay: ELISA, coated antigen, biotinylated antibody
[2] = target: IL-23Fc (human) (UniProt Q9NPF7); assay: ELISA, coated human IL-23 (IL-23Fc), biotinylated antibody, streptavidin-HRP, mOD at 450 nm [panel A]

B1: E11E7Chimera (antibody, human IgG1, kappa, V domains shown)
VH: QVQLKESGPGLVQPSQTLSLTCTVSGFSLISYNVHWVRQPRGKGLEWMGVIWTGGSTDYNSVLKSRLSISRDTSKSQVFLKMHSLQTEDIGTYYCARDKYGLFPGYFDYWGQGVMVTVSS
VL: DIVMTQSPFSLAVSEGEMVTINCKPSQSLLSSGNRKNYLAWYQQKPGQSPKLLIYYASTRQSGVPDRFIGSGSGTDFTLTISDVQAEDLADYYCLQHFNYPWTFGGGTKLELKR
What does the source list for B1?
binding [1]: binds; binding [2]: binds
